Results deposited as PubChem BioAssay AID1259254 (NCATS, 2017)

Test: 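Finding genes that stop cells copying their DNA twice in one cycle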 (primary screen)
Cells: human HCT116 colorectal cancer cells
Reagents: single siRNA against human genes
Time to read-out: 3 days
Detection: 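Nuclei stained with Hoechst and imaged; cell-cycle phase assigned by DNA content; G2 share scaled per plate, non-targeting siRNA 0%, GMNN siRNA 100%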
Direction: G2 robust z-score and G2 cells, % of GMNN control: higher = more G2 cells, more excess DNA replication
Active means: 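Active siRNAs have a G2 robust z of 5 or more median absolute deviations over the median, which in these data means about 38% or higher of GMNN control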
The whole screen tested about 59,000 reagents; this is an unselected part. In the full data, about 1,550 (2.6%) are marked active. 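G2 share is only a proxy for re-replication; each gene was hit by three separate siRNAs, and active genes were retested.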 Reagents against one gene are numbered here. Not all columns of the deposit are shown. The record does not give: the amount of reagent.

gene	reagent no.	G2 robust z-score	G2 cells, % of GMNN control	outcome
PSMD5 (proteasome 26S subunit, non-ATPase 5)	1	-0.177	1.72	inactive
PSMD5 (proteasome 26S subunit, non-ATPase 5)	2	0.0596	3.39	inactive
PSMD5 (proteasome 26S subunit, non-ATPase 5)	3	1.31	12.2	inactive
ZBTB45 (zinc finger and BTB domain containing 45)	1	1.27	11.9	inactive
ZBTB45 (zinc finger and BTB domain containing 45)	2	0.84	8.88	inactive
ZBTB45 (zinc finger and BTB domain containing 45)	3	-1.03	-4.25	inactive
MDK (midkine)	1	0.675	7.72	inactive
MDK (midkine)	2	-0.187	1.65	inactive
MDK (midkine)	3	-1.16	-5.16	inactive
STK24 (serine/threonine kinase 24)	1	0.747	8.22	inactive
STK24 (serine/threonine kinase 24)	2	-1.28	-6.01	inactive
STK24 (serine/threonine kinase 24)	3	-1.11	-4.87	inactive
CASC15 (cancer susceptibility 15)	1	0.337	5.34	inactive
CASC15 (cancer susceptibility 15)	2	1.06	10.4	inactive
CASC15 (cancer susceptibility 15)	3	1.24	11.7	inactive
TMEM186 (transmembrane protein 186)	1	3.23	25.7	inactive
TMEM186 (transmembrane protein 186)	2	-1.15	-5.09	inactive
TMEM186 (transmembrane protein 186)	3	2.03	17.2	inactive
GZMA (granzyme A)	1	-0.423	-0.0095	inactive
GZMA (granzyme A)	2	9.27	68.2	active
GZMA (granzyme A)	3	-0.17	1.77	inactive
BOD1L1 (biorientation of chromosomes in cell division 1 like 1)	1	-0.709	-2.02	inactive
BOD1L1 (biorientation of chromosomes in cell division 1 like 1)	2	-0.343	0.551	inactive
BOD1L1 (biorientation of chromosomes in cell division 1 like 1)	3	-0.055	2.58	inactive
AGER (advanced glycosylation end-product specific receptor)	1	-0.32	0.719	inactive
AGER (advanced glycosylation end-product specific receptor)	2	1.85	16	inactive
AGER (advanced glycosylation end-product specific receptor)	3	1.91	16.4	inactive
MARF1 (meiosis regulator and mRNA stability factor 1)	1	-0.692	-1.9	inactive
MARF1 (meiosis regulator and mRNA stability factor 1)	2	-0.241	1.27	inactive
MARF1 (meiosis regulator and mRNA stability factor 1)	3	2.24	18.7	inactive

3 entries from above, limited to “G2 robust z-score”.
GZMA (granzyme A) #2	9.27
GZMA (granzyme A) #3	-0.17
BOD1L1 (biorientation of chromosomes in cell division 1 like 1) #1	-0.709
